Article PMC12040169 (PLOS Biology, 2025)
The list shows a part of the results.

Test system: T1, CTL2-GFP (C. trachomatis L2/434/Bu, GFP-expressing)
T1 construct: L2/434/Bu, GFP-expressing
Design: species or system HeLa; Intracellular C. trachomatis growth in HeLa cells, bulk GFP fluorescence relative to DMSO
Conditions: bulk GFP, single well; 28.5 h, 10 µM; inhibitor

In order of falling “% of control remaining” value:
1. Cc1nn(-c2ccccn2)c2c1-c1oncc1CC2 [CBK287280]  170.898%
2. COCCC(=O)NCc1ccc(OC2CCNCC2)cc1 [CBK024494T]  168.56%
3. Cc1cc(C)c(S(=O)(=O)N2CCC(C(=O)NNC(=S)NC3CCCC3)CC2)c(C)c1 [CBK266844]  161.556%
4. CC1(C)CC(=O)C2=C(C1)OC(=O)CC2c1ccc(Cl)cc1Cl (stereo not drawn) [CBK007777]  157.718%
5. O=C(Nc1ccccc1)N1C[C@@H]2C[C@H](C1)c1c(-c3cccnc3)ccc(=O)n1C2 [CBK289193]  155.63%
6. O=C(c1cc(S(=O)(=O)N2CCOCC2)ccc1Cl)N1CCCCC1 [CBK304377]  153.595%
7. CSCc1nc(CS(=O)(=O)Cc2cccc(C(F)(F)F)c2)no1 [CBK023617]  152.116%
8. C=CCn1c(Cc2csc(NC(=O)c3ccc(S(C)(=O)=O)cc3)n2)n[nH]c1=S [CBK295340]  151.985%
9. O=C1CCC[C@]2(CN(Cc3ccccc3)C[C@H]2c2cccnc2)N1 [CBK283349]  150.187%
10. CCCCCC(=O)Nc1ccc(C(=O)Cn2nc(C(=O)O)c3ccccc3c2=O)cc1 [CBK295628]  142.323%
11. O=C(NCc1cccnc1)c1ncoc1-c1cccc(Cl)c1 [CBK282403]  141.985%
12. CN(CCOc1ccc(Cl)cc1)C(=O)COc1cc2ccccc2cc1C(=O)O [CBK296720]  140.977%
13. Cc1cccc(CN2CCN(c3ccccc3C(O)c3nccn3C)CC2)c1 (stereo not drawn) [CBK286441]  137.529%
14. O=C(O)c1ccc(N2CCCCS2(=O)=O)cc1Cl [CBK287142]  136.536%
15. COc1ccc(C)cc1S(=O)(=O)N(C)CC(=O)Nc1cccc(Cl)c1 [CBK269493]  135.853%
16. CN1C(=O)c2ccccc2C(=O)[C@@]2(C)CN(C3CCCC3)C[C@@H]12 [CBK283476]  135.735%
17. O=C(NC1CCCCC1)c1cc(Br)cnc1NCCCn1ccnc1 [CBK076494]  133.83%
18. O=C(CSCc1ccc(C(=O)O)cc1)Nc1ccc2ccccc2c1 [CBK299833]  132.866%
19. Cc1noc2nc(-c3cccnc3)cc(C(=O)O)c12 [CBK288207]  132.671%
20. Cc1nn(CCC(=O)NCc2ccco2)c(C)c1Cl [CBK269961]  131.615%
21. O=C(O)COc1ccc(NC(=O)C2CCCO2)cc1 (stereo not drawn) [CBK270063]  130.015%
22. S=C(NC1=NCCS1)Nc1ccccc1 [CBK016591]  129.302%
23. CCCC(=O)N1CCC(Cc2ccc(-c3cccc(C)c3)cc2)(C(=O)NC)CC1 [CBK285786]  129.223%
24. CCc1cccc(CC)c1NC(=O)CN(c1cccc(Br)c1)S(C)(=O)=O [CBK265986]  129.061%
25. O=C(O)CCC(=O)N(Cc1ccco1)C1CC(=O)N(c2ccc(F)cc2)C1=O (stereo not drawn) [CBK287059]  126.732%
26. COc1cc(/C=C2/NC(=O)N(c3cccc(Cl)c3)C2=O)ccc1OCC(=O)Nc1ccc(F)cc1 [CBK265691]  125.845%
27. COc1ccccc1Cc1cccc(C2CCN(C(=O)Cc3ccccc3)CC2)n1 [CBK286240]  125.063%
28. COc1cc(CN2CCC(N3CCCCC3)CC2)c([N+](=O)[O-])cc1OC [CBK261858]  124.482%
29. Cc1nn(C)c(N2CCNCC2)c1NC(=O)c1cnccn1 [CBK050308T]  123.458%
30. O=C(O)c1cccc2c1Sc1ccccc1O2 [CBK017129]  122.902%
31. S=c1nc(-c2ccccc2)n2cc(Br)ccc2n1 [CBK026696]  122.502%
32. COc1ccc(/C=C(/NC(=O)c2cccc([N+](=O)[O-])c2)C(=O)O)cc1OC [CBK263362]  122.209%
33. Cc1nc(CN2[C@H]3CCCCC(=O)N[C@@]3(C)C[C@H]2c2cccc(C(F)(F)F)c2)cs1 [CBK285701]  122.115%
34. Cc1ccc(-n2c(C)c([N+](=O)[O-])c3ccc(O)cc32)cc1 [CBK094246]  119.826%
35. O=C1CSC2(C(=O)N(Cc3ccccc3)c3ccccc32)N1c1ccccc1 (stereo not drawn) [CBK092391]  119.502%
36. O=C(NC1CCCN(CC(F)(F)F)C1=O)c1cnc(-c2ccncc2)s1 (stereo not drawn) [CBK306175]  119.094%
37. CCS(=O)(=O)N1CCN(Cc2ccc3c(c2)OCO3)CC1 [CBK074545]  119.049%
38. O=c1[nH]c(-c2ccccc2)nc2c1CN(Cc1ccc(F)cc1)CC2 [CBK282329]  118.111%
39. CN1CCN(C)C(COc2nccc(C(F)(F)F)n2)C1 (stereo not drawn) [CBK113298]  117.805%
40. O=C(Cn1nc(C(F)(F)F)c2cccn2c1=O)NC1CCCC1 [CBK282867]  117.79%
41. Cn1nc(C2CC2)cc1C(=O)NCCCN1CCCc2ccccc21 [CBK282476]  117.65%
42. CC(=O)Oc1cc(C)cc(C#N)c1 [CBK038296]  116.921%
43. O=C(COc1ccc(Cl)cc1)NNC(=O)Cc1cccc2ccccc12 [CBK261693]  116.868%
44. O=C(CCn1c(C(F)F)cc2cccnc21)NC1CCCC1 [CBK285063]  116.023%
45. COc1ccccc1NS(=O)(=O)c1ccc(C)c(C(=O)NCC(c2ccco2)N2CCCCC2)c1 (stereo not drawn) [CBK296669]  115.855%
46. CCOC(=O)C(C)n1ncc2c3sc(C)cc3n(C)c2c1=O (stereo not drawn) [CBK284157]  115.377%
47. Cc1ccc(-c2nn(CCC#N)cc2C(=O)N2CCCCC2)cc1 [CBK306119]  115.035%
48. COc1ccc(N2CCN(CC(=O)N3CCC(C(N)=O)CC3)CC2)cc1 [CBK268993]  112.806%
49. O=C1Nc2ccc(-c3ccc(Cl)cc3)cc2C(=O)N2CCN(C(=O)CO)C[C@H]12 [CBK289594]  112.007%
50. O=C(c1cccnc1)C1CCN(C(=O)Cc2ccccc2F)CC1 [CBK283814]  111.965%
51. CCOc1ccsc1C(=O)Nc1cc2ccccc2c(N2CCNCC2)n1 [CBK036341T]  110.149%
52. CC1CCC2(CC1)NC(=O)N(Cc1csc(-c3ccco3)n1)C2=O (stereo not drawn) [CBK304279]  109.375%
53. Nc1nonc1C(=O)NCCNC(=O)c1ccco1 [CBK058480]  109.098%
54. Cc1noc(C)c1CNS(=O)(=O)N1CCOC(c2ccccc2)C1 (stereo not drawn) [CBK305306]  107.676%
55. Cc1ccccc1CC(=O)NCC(c1ccccc1Cl)N1CCOCC1 (stereo not drawn) [CBK304564]  106.282%
56. Cc1ccc(NS(=O)(=O)c2ccc(OC(F)(F)F)cc2)nc1 [CBK043577]  105.491%
57. Cc1nc(-c2cccs2)cc([C@H]2CN3CC[C@H]2C[C@@H]3CNC(=O)c2ccco2)n1 [CBK289127]  104.104%
58. O=S(=O)(Nc1nnn[nH]1)c1ccc(-c2ccon2)s1 [CBK062391]  103.768%
59. COc1ccc(C(=O)NCCCN(C)C)cc1Nc1cncc(-c2ccc(O)cc2)n1 [CBK126938T]  102.71%
60. O=C(NCCNC1CCC(c2ccccc2)CC1)c1ccc(F)cc1 (stereo not drawn) [CBK266857]  101.624%
61. Cc1cccc(C(C)C)c1NC(=O)C1Cc2ccccc2CN1S(=O)(=O)c1ccc(F)cc1 (stereo not drawn) [CBK267992]  101.369%
62. CCN(CC)CCNc1nc2cc(Cl)ccc2[nH]1 [CBK262453]  100%
63. COC(=O)c1c(NC(=O)C2C3C=CC(C3)C2C(=O)O)sc2c1CCCCC2 (stereo not drawn) [CBK262653]  100%
64. CCCc1c(C(=O)N2CCN(C)CC2)cnn1-c1cc(Cl)cc(Cl)c1 [CBK107375]  98.8751%
65. O=C(Nc1cccc(-c2ccc3nncn3n2)c1)c1ccc(F)cc1 [CBK287682]  97.8653%
66. Cc1ccc(S(=O)(=O)Nc2nc(C)c(C(=O)O)s2)cc1[N+](=O)[O-] [CBK045565]  96.5334%
67. C=C(C)Cn1c(SCC(C)C)nnc1-c1cccs1 [CBK200086]  96.2259%
68. Cn1ccnc1CN1C(=O)CO[C@H]2CN(c3ncccn3)C[C@H]21 [CBK289704]  95.8283%
69. CCN(CC)C(=O)C1CCCN(C(=O)Nc2cccnc2)C1 (stereo not drawn) [CBK156157]  95.035%
70. Clc1ccc(Cn2ncc3c(NCc4cccnc4)ncnc32)cc1 [CBK300478]  94.0279%
71. Cc1nn(C(C)C)c(C)c1CN1CCN(C2CCCCC2)C(=O)C1 [CBK282562]  93.945%
72. O=c1c(N2CCC(Sc3ccccc3)CC2)nccn1Cc1ccc(OC(F)(F)F)cc1 [CBK155257]  93.8876%
73. Cc1ccc(C(=O)NC(=S)Nc2ccc(-c3ccc(CO)o3)cc2)cc1[N+](=O)[O-] [CBK269127]  92.8723%
74. O=C1CCC(=O)N1CCOc1nccnc1OC1CCN(Cc2ccccc2F)CC1 [CBK084337]  91.8674%
75. CCN1CCN(S(=O)(=O)c2ccccc2F)CC1 [CBK100558]  87.8346%
76. COc1ccc([C@@]23CC[C@@H](NC(=O)Nc4ccc(F)c(F)c4)C[C@@H]2N(C(=O)CN)CC3)cc1OC [CBK051679]  70.4442%
77. Cc1cc(NS(=O)(=O)c2ccc(Nc3nc(-c4ccc(Cl)cc4Cl)cs3)cc2)no1 [CBK267298]  68.4615%
78. Clc1ccc(CN2CCC(Oc3cncc(OCCN4CCOCC4)n3)C2)cc1Cl (stereo not drawn) [CBK084477]  65.3238%
